The data set is described as follows: Caco-2 apical-to-basolateral apparent permeability. The conditions noted are these: human. Format: in vitro ADME. In general terms: Caco-2 cells form a polarised layer with tight junctions and transporters.

For the compound `CC(C)NCC(O)COc1ccc(CC(N)=O)cc1` (centres unmarked) [atenolol], the apparent permeability from apical to basolateral (Papp A→B) is, setting by setting: (Caco-2, pH 6.5) 0.121 ×10⁻⁶ cm/s; (Caco-2, pH 7.4) 0.146 ×10⁻⁶ cm/s.

By Papp A→B is commonly meant how fast a substance crosses the layer from the apical side.
